# Inconclusive means that the source gave no clear call. Such entries were picked first, then a sample of the others. A potency beside an inconclusive call is a rough fit, not a confirmed value. Active and inactive are the calls of the source. The calls were made as follows: active = hit-call score of the fitted dose curve at least 0.9, where 1 is the maximum; inconclusive = response in the unintended direction; inactive = score below 0.9.
# Amino acid sequences for entries named in this document (tags omitted). A change or cut given only in a name is not applied to a line headed by its entry.
# UniProt P37231: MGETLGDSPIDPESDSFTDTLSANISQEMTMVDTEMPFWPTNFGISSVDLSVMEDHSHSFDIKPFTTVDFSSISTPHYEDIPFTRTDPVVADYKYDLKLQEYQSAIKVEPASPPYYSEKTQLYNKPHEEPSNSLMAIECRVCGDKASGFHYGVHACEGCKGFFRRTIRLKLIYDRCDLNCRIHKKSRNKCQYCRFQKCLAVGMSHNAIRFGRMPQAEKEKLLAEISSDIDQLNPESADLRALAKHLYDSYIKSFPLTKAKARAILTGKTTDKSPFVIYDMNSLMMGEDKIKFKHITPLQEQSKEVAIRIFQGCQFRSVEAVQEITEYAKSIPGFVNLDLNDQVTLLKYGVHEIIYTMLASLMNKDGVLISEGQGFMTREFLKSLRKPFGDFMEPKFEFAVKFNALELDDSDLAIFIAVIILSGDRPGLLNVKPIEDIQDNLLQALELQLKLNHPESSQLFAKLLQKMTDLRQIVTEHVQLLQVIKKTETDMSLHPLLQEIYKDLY
# UniProt O75469: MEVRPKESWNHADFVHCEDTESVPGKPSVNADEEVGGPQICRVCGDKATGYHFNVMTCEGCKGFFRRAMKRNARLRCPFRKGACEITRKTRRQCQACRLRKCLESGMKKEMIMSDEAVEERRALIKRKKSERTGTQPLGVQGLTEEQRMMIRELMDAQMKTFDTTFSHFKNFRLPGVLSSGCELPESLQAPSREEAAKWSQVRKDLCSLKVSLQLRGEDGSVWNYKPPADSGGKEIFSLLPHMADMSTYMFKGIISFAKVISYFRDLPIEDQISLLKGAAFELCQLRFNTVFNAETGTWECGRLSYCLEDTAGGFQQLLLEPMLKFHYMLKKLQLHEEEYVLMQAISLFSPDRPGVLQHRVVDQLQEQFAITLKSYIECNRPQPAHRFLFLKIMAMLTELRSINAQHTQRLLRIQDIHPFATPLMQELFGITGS
# UniProt P13631, whole entry, looked up: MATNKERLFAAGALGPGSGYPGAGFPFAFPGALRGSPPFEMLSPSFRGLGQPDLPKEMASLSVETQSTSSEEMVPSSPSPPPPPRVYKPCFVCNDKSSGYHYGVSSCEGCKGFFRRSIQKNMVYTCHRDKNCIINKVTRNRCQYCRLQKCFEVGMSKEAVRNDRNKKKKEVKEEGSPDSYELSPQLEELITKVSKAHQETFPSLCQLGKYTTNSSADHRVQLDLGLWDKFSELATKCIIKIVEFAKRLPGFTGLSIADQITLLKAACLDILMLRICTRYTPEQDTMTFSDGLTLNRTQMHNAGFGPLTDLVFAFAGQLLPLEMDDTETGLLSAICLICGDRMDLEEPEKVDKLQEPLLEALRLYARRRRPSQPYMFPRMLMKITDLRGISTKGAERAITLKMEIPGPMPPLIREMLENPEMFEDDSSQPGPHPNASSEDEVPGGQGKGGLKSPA
# UniProt Q92753: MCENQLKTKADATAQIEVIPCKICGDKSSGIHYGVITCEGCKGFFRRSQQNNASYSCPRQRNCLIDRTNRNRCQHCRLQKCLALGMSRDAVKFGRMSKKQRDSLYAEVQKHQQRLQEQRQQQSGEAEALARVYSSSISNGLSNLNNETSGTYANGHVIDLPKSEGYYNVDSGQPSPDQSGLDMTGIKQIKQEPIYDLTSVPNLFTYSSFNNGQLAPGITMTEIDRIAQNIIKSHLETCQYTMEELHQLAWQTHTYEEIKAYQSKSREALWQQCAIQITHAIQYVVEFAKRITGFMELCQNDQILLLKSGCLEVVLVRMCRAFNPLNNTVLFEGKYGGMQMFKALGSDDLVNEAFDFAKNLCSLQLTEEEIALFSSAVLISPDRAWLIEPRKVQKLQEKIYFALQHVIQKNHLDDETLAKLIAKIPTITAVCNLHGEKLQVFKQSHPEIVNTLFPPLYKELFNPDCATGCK
# UniProt P51449: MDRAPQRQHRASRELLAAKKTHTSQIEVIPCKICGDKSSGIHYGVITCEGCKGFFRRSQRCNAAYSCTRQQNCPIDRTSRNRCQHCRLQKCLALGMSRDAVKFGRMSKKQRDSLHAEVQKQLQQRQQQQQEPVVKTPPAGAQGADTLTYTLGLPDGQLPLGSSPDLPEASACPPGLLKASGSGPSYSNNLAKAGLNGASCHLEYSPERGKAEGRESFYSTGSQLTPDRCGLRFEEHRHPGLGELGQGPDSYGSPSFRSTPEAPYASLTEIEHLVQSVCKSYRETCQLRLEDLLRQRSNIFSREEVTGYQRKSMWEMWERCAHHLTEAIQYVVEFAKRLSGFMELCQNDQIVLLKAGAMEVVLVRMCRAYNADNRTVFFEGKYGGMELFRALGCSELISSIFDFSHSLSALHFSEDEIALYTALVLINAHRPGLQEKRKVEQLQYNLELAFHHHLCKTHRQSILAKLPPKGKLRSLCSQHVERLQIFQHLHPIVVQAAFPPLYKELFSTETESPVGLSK
# UniProt P28702: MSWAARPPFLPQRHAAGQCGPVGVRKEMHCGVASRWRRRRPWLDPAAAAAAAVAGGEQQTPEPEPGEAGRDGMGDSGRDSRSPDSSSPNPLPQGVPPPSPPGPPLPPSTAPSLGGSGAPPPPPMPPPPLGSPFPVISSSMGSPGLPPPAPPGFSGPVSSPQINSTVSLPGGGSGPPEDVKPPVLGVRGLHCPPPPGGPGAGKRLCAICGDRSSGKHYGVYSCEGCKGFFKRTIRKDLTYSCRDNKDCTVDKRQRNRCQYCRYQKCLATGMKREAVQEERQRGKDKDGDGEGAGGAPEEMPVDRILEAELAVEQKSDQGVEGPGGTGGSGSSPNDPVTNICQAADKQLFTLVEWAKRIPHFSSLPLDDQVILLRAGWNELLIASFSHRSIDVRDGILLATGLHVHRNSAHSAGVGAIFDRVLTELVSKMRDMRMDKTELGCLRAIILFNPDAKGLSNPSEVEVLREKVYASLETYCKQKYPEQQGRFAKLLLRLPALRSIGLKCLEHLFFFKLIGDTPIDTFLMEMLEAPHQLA
# UniProt P10827: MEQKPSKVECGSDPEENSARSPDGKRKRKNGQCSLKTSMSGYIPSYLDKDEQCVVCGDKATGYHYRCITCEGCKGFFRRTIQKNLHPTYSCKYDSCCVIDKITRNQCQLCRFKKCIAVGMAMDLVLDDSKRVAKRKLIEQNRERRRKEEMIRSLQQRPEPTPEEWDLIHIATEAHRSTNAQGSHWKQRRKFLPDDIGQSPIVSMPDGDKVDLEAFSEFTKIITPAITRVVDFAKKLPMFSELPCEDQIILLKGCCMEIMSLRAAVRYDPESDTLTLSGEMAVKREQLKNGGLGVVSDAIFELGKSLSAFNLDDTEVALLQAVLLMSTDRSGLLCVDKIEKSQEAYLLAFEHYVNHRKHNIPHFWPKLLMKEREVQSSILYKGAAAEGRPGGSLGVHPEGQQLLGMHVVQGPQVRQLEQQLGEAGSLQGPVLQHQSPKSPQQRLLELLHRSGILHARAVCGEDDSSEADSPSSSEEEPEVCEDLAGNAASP
# UniProt P11473: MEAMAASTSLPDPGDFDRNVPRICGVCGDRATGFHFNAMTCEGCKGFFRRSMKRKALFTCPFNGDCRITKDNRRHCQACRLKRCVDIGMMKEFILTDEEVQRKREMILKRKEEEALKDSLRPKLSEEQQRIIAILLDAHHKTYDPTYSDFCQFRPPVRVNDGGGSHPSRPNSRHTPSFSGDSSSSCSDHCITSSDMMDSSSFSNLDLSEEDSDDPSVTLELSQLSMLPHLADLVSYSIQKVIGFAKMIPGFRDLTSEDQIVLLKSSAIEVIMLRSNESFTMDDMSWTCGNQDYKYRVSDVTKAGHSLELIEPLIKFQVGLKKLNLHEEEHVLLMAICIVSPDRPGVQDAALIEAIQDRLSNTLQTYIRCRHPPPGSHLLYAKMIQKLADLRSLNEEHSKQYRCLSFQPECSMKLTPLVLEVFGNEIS
# UniProt P19793: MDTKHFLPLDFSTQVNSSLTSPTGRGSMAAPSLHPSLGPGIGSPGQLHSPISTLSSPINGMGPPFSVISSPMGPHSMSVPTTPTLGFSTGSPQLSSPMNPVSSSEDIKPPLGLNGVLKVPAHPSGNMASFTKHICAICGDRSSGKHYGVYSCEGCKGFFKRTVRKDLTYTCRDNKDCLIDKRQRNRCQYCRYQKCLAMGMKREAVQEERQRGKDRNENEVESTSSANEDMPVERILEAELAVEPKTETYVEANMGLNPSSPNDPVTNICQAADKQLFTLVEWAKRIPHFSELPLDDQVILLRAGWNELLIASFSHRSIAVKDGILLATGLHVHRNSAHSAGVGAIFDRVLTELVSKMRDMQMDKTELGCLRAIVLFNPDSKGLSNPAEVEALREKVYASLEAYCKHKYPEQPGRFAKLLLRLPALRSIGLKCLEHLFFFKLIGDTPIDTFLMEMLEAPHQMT
# Tests used:
# [1] = target: Peroxisome proliferator-activated receptor gamma (Homo sapiens) (UniProt P37231); experiment: ATG_PPARg_TRANS: Attagene TRANS-FACTORIAL HepG2 Assay for human Peroxisome Proliferator-activated Receptor-gamma (PPARg) (AID 2283007)
# Summary of the method: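 Endpoint reflects upward reporter mRNA change versus DMSO controls. Setup: transiently transfected HepG2, GAL4-UAS reporters driven by chimeric NR-Gal4, 24 h incubation, RT-PCR with capillary electrophoresis read-out.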
# [2] = target: Nuclear receptor subfamily 1 group I member 2 (Homo sapiens) (UniProt O75469); experiment: ATG_PXR_TRANS: Attagene TRANS-FACTORIAL HepG2 Assay for human Pregnane X Receptor (PXR) (AID 2283008)
# Summary of the method: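 Measures mRNA induction of a GAL4-UAS-driven reporter in human HepG2 cells transiently expressing PXR fused to Gal4, following 24 h treatment. DMSO served as negative control and baseline.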
# [3] = target: human Retinoic Acid Receptor gamma (RARg), RARG (gene 5916) (UniProt P13631); experiment: ATG_RARg_TRANS: Attagene TRANS-FACTORIAL HepG2 Assay for human Retinoic Acid Receptor gamma (RARg) (AID 2283009);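 as to AC50: AC50 is for reporter induction above DMSO meaning RARg activation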
# Summary of the method: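 HepG2 cells transiently transfected with multiplexed reporter units expressing chimeric RARg-GAL4 and GAL4-UAS-driven reporters; 24 h compound exposure. Reporter mRNA quantified by RT-PCR with fluorescent labelling and capillary electrophoresis; gain-of-signal fitted relative to DMSO baseline.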
# [4] = target: human RAR-related Orphan Receptor beta (RORb), RORB (gene 6096) (UniProt Q92753); experiment: ATG_RORb_TRANS: Attagene TRANS-FACTORIAL HepG2 Assay for human RAR-related Orphan Receptor beta (RORb) (AID 2283010);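 as to AC50: potency for increased reporter mRNA meaning activation of RORb-Gal4 chimera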
# Summary of the method: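 HepG2 cells were transiently transfected with multiplexed GAL4-UAS reporter units expressing chimeric nuclear receptor–GAL4 proteins, then dosed for 24 h. Reporter mRNA was quantified by RT-PCR with fluorescent labelling and capillary electrophoresis; gain of signal was fitted relative to DMSO.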
# [5] = target: human RAR-related Orphan Receptor gamma (RORg), RORC (gene 6097) (UniProt P51449); experiment: ATG_RORg_TRANS: Attagene TRANS-FACTORIAL HepG2 Assay for human RAR-related Orphan Receptor gamma (RORg) (AID 2283011);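 as to AC50: potency for induction of reporter transcripts above DMSO so activators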
# Summary of the method: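 Readout: reporter transcript induction (RT-PCR, fluorescent primer extension, capillary electrophoresis) after 24 h compound exposure of transiently transfected HepG2 cells carrying a RORg-Gal4 chimera and GAL4-UAS reporters; DMSO served as baseline, with increasing signal fitted.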
# [6] = target: human Retinoid X Receptor beta (RXRb), RXRB (gene 6257) (UniProt P28702); experiment: ATG_RXRb_TRANS: Attagene TRANS-FACTORIAL HepG2 Assay for human Retinoid X Receptor beta (RXRb) (AID 2283013)
# Summary of the method: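 HepG2 cells transiently transfected with multiplexed reporter units driven by GAL4-UAS and exogenous chimeric NR-Gal4 proteins; treated 24 h. Reporter mRNA measured by RT-PCR, 6-FAM labelling and capillary electrophoresis; gain-of-signal fitted versus DMSO baseline.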
# [7] = target: human Thyroid Receptor alpha (THRa1), THRA (gene 7067) (UniProt P10827); experiment: ATG_THRa1_TRANS: Attagene TRANS-FACTORIAL HepG2 Assay for human Thyroid Receptor alpha (THRa1) (AID 2283014)
# Summary of the method: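 HepG2 cells transiently transfected with multiplexed GAL4-UAS reporter units for exogenous chimeric THRa1-Gal4; reporter mRNA measured 24 h after dosing by RT-PCR, 6-FAM labelling, HpaI digestion and capillary electrophoresis. Gain-of-signal fitted versus DMSO baseline.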
# [8] = target: human Vitamin D Receptor (VDR), VDR (gene 7421) (UniProt P11473); experiment: ATG_VDR_TRANS: Attagene TRANS-FACTORIAL HepG2 Assay for human Vitamin D Receptor (VDR) (AID 2283022)
# Summary of the method: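 HepG2 cells were transiently transfected with multiple GAL4-UAS reporter units, so signal reflects exogenous chimeric receptor-Gal4 activity. After 24 h compound exposure, reporter mRNA was measured by RT-PCR, fluorescent labelling and capillary electrophoresis, fitted for gain of signal versus DMSO.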
# [9] = target: Retinoic acid receptor RXR-alpha (Homo sapiens) (UniProt P19793); experiment: ATG_RXRa_TRANS: Attagene TRANS-FACTORIAL HepG2 Assay for human Retinoid X Receptor alpha (RXRa) (AID 2283012)
# Summary of the method: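 HepG2 cells transiently transfected with multiplexed GAL4-UAS reporter units and chimeric NR-GAL4 fusions, dosed 24 h. Reporter mRNA measured by RT-PCR, FAM labelling, HpaI digestion and capillary electrophoresis; gain-of-signal fitted relative to DMSO baseline.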
smiles,measurement,setting,value
FC(F)(F)C(F)(F)C(F)(F)C(F)(F)C(F)(F)C(F)(F)C(F)(F)C(F)(F)CCS,AC50,[1],inconclusive: 50 µM
same,AC50,[2],inconclusive: 50 µM
same,AC50,[3],inconclusive: 50 µM
same,AC50,[4],inconclusive: 50 µM
same,AC50,[5],inconclusive: 50 µM
same,AC50,[6],inconclusive: 50 µM
F[Si-2](F)(F)(F)(F)F,AC50,[1],inconclusive: 100 µM
same,outcome,[2],inactive
same,AC50,[3],inconclusive: 154 µM
same,AC50,[4],inconclusive: 100 µM
same,outcome,[5],inactive
same,outcome,[9],inactive
same,outcome,[7],inactive
Clc1ccc(C(c2ccccc2Cl)C(Cl)Cl)cc1 (stereo unspecified),outcome,[1],inactive
same,AC50,[2],active: 1.92 µM
same,AC50,[3],inconclusive: 100 µM
same,AC50,[4],inconclusive: 63.8 µM
same,AC50,[5],inconclusive: 30.5 µM
same,AC50,[6],active: 9.66 µM
same,outcome,[7],inactive
NC(=O)C(F)(F)C(F)(F)C(F)(F)F,AC50,[1],inconclusive: 150 µM
same,AC50,[2],inconclusive: 150 µM
same,AC50,[3],inconclusive: 255 µM
same,AC50,[4],inconclusive: 150 µM
same,outcome,[5],inactive
same,AC50,[6],inconclusive: 150 µM
same,AC50,[7],inconclusive: 150 µM
Cc1cnccn1,AC50,[1],inconclusive: 100 µM
same,outcome,[2],inactive
same,outcome,[3],inactive
same,AC50,[4],inconclusive: 100 µM
same,outcome,[5],inactive
same,AC50,[6],inconclusive: 0.0823 µM
same,AC50,[8],inconclusive: 100 µM
Cc1ccc(O)cc1,AC50,[1],inconclusive: 116 µM
same,AC50,[2],inconclusive: 116 µM
same,AC50,[3],inconclusive: 116 µM
same,AC50,[4],inconclusive: 116 µM
same,AC50,[5],inconclusive: 116 µM
same,AC50,[9],inconclusive: 116 µM
same,AC50,[6],inconclusive: 41.1 µM
same,AC50,[7],inconclusive: 0.112 µM
same,AC50,[8],inconclusive: 0.0106 µM
Cc1c(Cl)cccc1Cl,AC50,[1],inconclusive: 100 µM
same,AC50,[2],inconclusive: 100 µM
same,AC50,[3],inconclusive: 100 µM
same,outcome,[4],inactive
same,AC50,[5],inconclusive: 100 µM
same,AC50,[6],inconclusive: 100 µM
same,AC50,[8],inconclusive: 2.26 µM
OCC(CO)(CBr)CBr,AC50,[1],inconclusive: 100 µM
same,AC50,[2],inconclusive: 100 µM
same,AC50,[3],inconclusive: 100 µM
same,AC50,[4],inconclusive: 180 µM
same,AC50,[5],inconclusive: 100 µM
same,AC50,[6],inconclusive: 100 µM
CN1C(=O)c2ccccc2C1=O,AC50,[1],inconclusive: 100 µM
same,AC50,[2],inconclusive: 75.7 µM
same,outcome,[3],inactive
same,AC50,[4],inconclusive: 155 µM
same,outcome,[5],inactive
same,outcome,[6],inactive
same,AC50,[7],inconclusive: 57.2 µM
COC(CC(C)CCCC(C)(C)O)OC (stereo unspecified),AC50,[1],inconclusive: 100 µM
same,outcome,[2],inactive
same,AC50,[3],inconclusive: 100 µM
same,AC50,[4],inconclusive: 100 µM
same,AC50,[5],inconclusive: 0.0823 µM
same,AC50,[9],inconclusive: 100 µM
same,outcome,[6],inactive
same,AC50,[7],inconclusive: 100 µM
same,outcome,[8],inactive
